# From the supplement of paper PMC12823440, “Inhibitors supercharge kinase turnover through native proteolytic circuits” (Nature, 2025)
# Amino acid sequences for entries named in this document (tags omitted). A change or cut given only in a name is not applied to a line headed by its entry.
# UniProt Q15208: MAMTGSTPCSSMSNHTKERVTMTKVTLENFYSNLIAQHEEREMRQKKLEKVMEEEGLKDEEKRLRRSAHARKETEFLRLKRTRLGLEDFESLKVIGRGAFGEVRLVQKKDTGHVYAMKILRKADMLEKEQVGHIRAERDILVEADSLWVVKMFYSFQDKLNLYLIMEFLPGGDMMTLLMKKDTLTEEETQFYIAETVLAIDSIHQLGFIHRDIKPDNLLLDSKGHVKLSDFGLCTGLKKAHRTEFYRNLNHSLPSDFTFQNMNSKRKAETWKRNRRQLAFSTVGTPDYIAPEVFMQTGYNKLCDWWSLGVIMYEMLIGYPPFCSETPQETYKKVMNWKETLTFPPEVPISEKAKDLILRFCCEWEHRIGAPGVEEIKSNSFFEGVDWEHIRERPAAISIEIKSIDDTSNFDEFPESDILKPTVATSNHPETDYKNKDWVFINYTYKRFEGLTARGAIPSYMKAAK
# UniProt P42680: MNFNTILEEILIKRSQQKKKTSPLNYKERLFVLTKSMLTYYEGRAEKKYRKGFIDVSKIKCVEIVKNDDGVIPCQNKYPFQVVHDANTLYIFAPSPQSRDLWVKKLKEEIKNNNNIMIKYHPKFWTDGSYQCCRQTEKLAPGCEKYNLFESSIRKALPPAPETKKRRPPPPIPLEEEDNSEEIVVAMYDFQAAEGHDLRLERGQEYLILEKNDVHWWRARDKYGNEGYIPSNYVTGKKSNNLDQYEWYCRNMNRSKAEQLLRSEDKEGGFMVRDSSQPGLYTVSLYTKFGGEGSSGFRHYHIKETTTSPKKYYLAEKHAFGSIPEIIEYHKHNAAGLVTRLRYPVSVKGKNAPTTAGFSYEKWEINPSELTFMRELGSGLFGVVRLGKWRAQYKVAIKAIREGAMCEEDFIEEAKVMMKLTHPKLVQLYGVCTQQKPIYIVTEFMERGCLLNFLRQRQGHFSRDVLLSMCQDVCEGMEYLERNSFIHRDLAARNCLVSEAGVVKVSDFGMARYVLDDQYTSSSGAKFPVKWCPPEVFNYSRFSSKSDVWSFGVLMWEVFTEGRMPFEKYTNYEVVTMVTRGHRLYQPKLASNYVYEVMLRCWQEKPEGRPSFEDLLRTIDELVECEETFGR
# UniProt P29597: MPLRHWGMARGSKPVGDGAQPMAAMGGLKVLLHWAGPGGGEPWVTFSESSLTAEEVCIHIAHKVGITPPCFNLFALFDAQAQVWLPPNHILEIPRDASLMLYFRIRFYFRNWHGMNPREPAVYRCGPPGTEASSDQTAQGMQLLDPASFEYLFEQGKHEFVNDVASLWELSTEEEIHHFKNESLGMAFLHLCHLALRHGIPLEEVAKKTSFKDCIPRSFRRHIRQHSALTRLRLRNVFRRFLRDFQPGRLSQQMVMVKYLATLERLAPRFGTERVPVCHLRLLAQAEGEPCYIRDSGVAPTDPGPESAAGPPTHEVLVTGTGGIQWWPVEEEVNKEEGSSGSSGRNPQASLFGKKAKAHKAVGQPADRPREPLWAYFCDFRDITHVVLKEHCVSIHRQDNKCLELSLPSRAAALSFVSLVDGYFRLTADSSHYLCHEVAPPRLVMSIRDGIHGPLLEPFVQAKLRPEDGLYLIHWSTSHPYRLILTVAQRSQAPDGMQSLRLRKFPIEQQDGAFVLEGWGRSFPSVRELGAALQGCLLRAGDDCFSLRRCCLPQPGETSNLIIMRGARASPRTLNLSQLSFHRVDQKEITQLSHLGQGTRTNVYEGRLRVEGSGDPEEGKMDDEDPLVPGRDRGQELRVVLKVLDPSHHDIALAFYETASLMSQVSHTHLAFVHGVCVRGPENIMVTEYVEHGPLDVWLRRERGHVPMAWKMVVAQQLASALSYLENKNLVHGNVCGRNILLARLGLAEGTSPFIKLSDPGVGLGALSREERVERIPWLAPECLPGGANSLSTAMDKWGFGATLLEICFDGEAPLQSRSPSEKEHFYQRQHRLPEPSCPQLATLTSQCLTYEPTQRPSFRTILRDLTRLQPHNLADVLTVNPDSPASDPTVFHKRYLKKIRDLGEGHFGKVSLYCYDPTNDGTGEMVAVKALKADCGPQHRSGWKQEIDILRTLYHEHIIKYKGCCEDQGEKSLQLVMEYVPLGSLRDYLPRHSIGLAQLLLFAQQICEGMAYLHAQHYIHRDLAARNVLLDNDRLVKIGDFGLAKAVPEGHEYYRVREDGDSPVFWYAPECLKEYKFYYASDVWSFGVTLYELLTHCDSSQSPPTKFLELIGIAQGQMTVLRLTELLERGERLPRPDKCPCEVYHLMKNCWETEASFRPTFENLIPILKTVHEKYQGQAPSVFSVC
# UniProt Q6PHR2: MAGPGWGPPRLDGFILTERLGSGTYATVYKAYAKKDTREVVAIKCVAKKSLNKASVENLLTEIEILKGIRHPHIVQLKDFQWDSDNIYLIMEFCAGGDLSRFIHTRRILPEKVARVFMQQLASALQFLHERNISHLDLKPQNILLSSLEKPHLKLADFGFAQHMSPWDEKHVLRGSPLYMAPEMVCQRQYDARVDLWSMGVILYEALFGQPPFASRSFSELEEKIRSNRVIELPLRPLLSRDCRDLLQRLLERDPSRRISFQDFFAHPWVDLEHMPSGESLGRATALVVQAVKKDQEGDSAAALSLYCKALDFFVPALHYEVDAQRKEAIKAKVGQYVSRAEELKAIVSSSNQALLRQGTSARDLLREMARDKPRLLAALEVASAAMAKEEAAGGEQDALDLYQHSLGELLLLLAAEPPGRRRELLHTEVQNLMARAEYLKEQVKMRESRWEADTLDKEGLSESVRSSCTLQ
# UniProt P07947, whole entry, looked up: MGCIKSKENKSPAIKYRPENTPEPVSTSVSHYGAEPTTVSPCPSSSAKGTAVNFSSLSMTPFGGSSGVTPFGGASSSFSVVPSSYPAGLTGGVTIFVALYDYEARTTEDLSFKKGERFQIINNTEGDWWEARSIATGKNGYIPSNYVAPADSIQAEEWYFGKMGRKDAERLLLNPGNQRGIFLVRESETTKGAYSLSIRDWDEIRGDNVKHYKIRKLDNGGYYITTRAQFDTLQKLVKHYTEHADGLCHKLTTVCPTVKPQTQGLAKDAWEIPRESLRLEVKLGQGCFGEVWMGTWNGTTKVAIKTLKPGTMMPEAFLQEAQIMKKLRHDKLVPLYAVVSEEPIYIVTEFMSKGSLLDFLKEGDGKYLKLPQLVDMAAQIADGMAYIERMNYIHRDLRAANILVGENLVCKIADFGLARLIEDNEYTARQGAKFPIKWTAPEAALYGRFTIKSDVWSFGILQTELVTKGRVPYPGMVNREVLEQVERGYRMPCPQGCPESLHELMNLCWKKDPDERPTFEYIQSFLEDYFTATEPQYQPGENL
# UniProt P43403: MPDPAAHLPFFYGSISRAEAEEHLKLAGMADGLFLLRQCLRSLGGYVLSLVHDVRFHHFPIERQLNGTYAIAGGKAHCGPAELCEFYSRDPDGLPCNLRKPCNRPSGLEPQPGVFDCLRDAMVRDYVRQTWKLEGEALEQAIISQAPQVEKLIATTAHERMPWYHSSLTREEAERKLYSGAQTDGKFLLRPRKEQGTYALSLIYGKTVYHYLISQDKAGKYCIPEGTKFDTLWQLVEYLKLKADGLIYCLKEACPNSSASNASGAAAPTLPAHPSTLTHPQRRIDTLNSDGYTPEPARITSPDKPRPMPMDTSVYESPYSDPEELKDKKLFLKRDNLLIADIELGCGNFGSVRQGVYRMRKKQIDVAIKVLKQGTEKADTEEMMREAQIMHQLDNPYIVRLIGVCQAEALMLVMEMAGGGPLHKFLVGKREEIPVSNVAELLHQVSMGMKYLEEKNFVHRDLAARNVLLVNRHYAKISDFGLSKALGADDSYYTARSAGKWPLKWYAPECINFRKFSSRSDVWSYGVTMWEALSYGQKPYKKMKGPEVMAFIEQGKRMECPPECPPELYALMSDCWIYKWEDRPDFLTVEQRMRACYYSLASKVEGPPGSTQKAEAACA
# UniProt P11802: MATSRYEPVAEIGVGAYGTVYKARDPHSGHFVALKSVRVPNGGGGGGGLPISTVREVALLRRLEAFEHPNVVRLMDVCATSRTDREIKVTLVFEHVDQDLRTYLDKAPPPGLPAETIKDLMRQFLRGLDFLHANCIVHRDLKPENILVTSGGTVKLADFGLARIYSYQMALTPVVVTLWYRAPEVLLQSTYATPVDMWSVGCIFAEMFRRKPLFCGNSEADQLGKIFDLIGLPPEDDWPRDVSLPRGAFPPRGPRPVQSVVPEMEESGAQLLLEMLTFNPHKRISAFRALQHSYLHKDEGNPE
# UniProt P50613: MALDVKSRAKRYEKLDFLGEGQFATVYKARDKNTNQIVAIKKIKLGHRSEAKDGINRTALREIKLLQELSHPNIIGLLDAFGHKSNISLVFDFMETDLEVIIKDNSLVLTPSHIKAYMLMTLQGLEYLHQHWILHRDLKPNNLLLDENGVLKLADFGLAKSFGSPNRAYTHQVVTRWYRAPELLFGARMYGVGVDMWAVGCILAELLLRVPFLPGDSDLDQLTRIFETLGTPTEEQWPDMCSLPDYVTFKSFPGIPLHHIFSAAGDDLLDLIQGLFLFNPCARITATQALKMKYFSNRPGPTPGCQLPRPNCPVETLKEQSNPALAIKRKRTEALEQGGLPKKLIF
# Where a name gives a salt, the structure may show the parent alone. The list shows a part of the results. Hit calls seldom repeat between salt and free forms of one compound.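 Kinases, fused to nanoluciferase, were expressed in K562 cells; luminescence was measured every 4 h from 2 to 18 h as percent of control (DMSO = 100%, positive control = 0%). A time point is decreased if signal falls significantly (2 sigma). Hits were called by the authors by a rule that is not shown; the count of time points alone does not decide it.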
# Tests used:
# Settings in all cases: K562, 2-18 h
# [1] = target: STK38 (UniProt Q15208); test: kinase-Nluc reporter destabilization hit call (1 = scored as downregulated) (binary); higher = compound decreases kinase abundance
# [2] = target: SYK (UniProt P43405); test: as above
# [3] = target: TEC (UniProt P42680); test: as above
# [4] = target: TYK2 (UniProt P29597); test: as above
# [5] = target: ULK3 (UniProt Q6PHR2); test: as above
# [6] = target: YES1 (UniProt P07947); test: as above
# [7] = target: ZAK (UniProt Q9NYL2); test: as above
# [8] = target: ZAP70 (UniProt P43403); test: as above
# [9] = target: CDK4 (UniProt P11802); test: number of time points (of 4; 2 h point missing) at which kinase-Nluc abundance scored as decreased, DMSO-normalised (count); higher = more persistent destabilization
# [10] = target: CDK7 (UniProt P50613); test: as above
smiles,measurement,setting,value
CN1CCN(c2ccc3nc(-c4c(N)c5c(F)cccc5[nH]c4=O)[nH]c3c2)CC1 [Dovitinib],kinase-Nluc reporter destabilization hit call,[1]; 2.5 µM,inactive: 0
same,kinase-Nluc reporter destabilization hit call,[2]; 2.5 µM,inactive: 0
same,kinase-Nluc reporter destabilization hit call,[3]; 2.5 µM,inactive: 0
same,kinase-Nluc reporter destabilization hit call,[4]; 2.5 µM,inactive: 0
same,kinase-Nluc reporter destabilization hit call,[5]; 2.5 µM,inactive: 0
same,kinase-Nluc reporter destabilization hit call,[6]; 2.5 µM,inactive: 0
same,kinase-Nluc reporter destabilization hit call,[7]; 2.5 µM,inactive: 0
same,kinase-Nluc reporter destabilization hit call,[8]; 2.5 µM,inactive: 0
same,number of time points,[9]; 2.5 µM,0
same,number of time points,[10]; 2.5 µM,0
Cc1cc2ncnn2cc1Nc1ncc2c(n1)n(C1CCOCC1)c(=O)n2C,kinase-Nluc reporter destabilization hit call,[3]; 10 µM,inactive: 0
same,kinase-Nluc reporter destabilization hit call,[4]; 10 µM,inactive: 0
same,kinase-Nluc reporter destabilization hit call,[5]; 10 µM,inactive: 0
same,kinase-Nluc reporter destabilization hit call,[6]; 10 µM,inactive: 0
same,kinase-Nluc reporter destabilization hit call,[7]; 10 µM,inactive: 0
same,kinase-Nluc reporter destabilization hit call,[8]; 10 µM,inactive: 0
same,number of time points,[9]; 10 µM,0
same,number of time points,[10]; 10 µM,0
Nc1ncccc1-c1nc2ccc(-c3ccccc3)nc2n1-c1ccc(C2(N)CCC2)cc1 [Miransertib],kinase-Nluc reporter destabilization hit call,[1]; 10 µM,inactive: 0
same,kinase-Nluc reporter destabilization hit call,[2]; 10 µM,inactive: 0
same,kinase-Nluc reporter destabilization hit call,[3]; 10 µM,inactive: 0
same,kinase-Nluc reporter destabilization hit call,[4]; 10 µM,inactive: 0
same,kinase-Nluc reporter destabilization hit call,[5]; 10 µM,inactive: 0
same,kinase-Nluc reporter destabilization hit call,[6]; 10 µM,inactive: 0
same,kinase-Nluc reporter destabilization hit call,[7]; 10 µM,inactive: 0
same,kinase-Nluc reporter destabilization hit call,[8]; 10 µM,inactive: 0
same,number of time points,[9]; 10 µM,0
same,number of time points,[10]; 10 µM,2
C=CC(=O)N1CCC[C@@H](n2nc(-c3ccc(Oc4ccccc4)cc3)c3c(N)ncnc32)C1 [Ibrutinib],kinase-Nluc reporter destabilization hit call,[1]; 2.5 µM,inactive: 0
same,kinase-Nluc reporter destabilization hit call,[2]; 2.5 µM,inactive: 0
same,kinase-Nluc reporter destabilization hit call,[3]; 2.5 µM,inactive: 0
same,kinase-Nluc reporter destabilization hit call,[4]; 2.5 µM,inactive: 0
same,kinase-Nluc reporter destabilization hit call,[5]; 2.5 µM,inactive: 0
same,kinase-Nluc reporter destabilization hit call,[6]; 2.5 µM,inactive: 0
same,kinase-Nluc reporter destabilization hit call,[7]; 2.5 µM,inactive: 0
same,kinase-Nluc reporter destabilization hit call,[8]; 2.5 µM,inactive: 0
same,number of time points,[9]; 2.5 µM,0
same,number of time points,[10]; 2.5 µM,0
CC(=O)c1c(C)c2cnc(Nc3ccc(N4CCN(C(=O)CCCCCC(=O)N[C@H](C(=O)N5C[C@H](O)C[C@H]5C(=O)NCc5ccc(-c6scnc6C)cc5)C(C)(C)C)CC4)cn3)nc2n(C2CCCC2)c1=O,kinase-Nluc reporter destabilization hit call,[1]; 2.5 µM,inactive: 0
same,kinase-Nluc reporter destabilization hit call,[3]; 2.5 µM,inactive: 0
same,kinase-Nluc reporter destabilization hit call,[4]; 2.5 µM,inactive: 0
same,kinase-Nluc reporter destabilization hit call,[5]; 2.5 µM,inactive: 0
same,kinase-Nluc reporter destabilization hit call,[6]; 2.5 µM,inactive: 0
same,kinase-Nluc reporter destabilization hit call,[7]; 2.5 µM,inactive: 0
same,kinase-Nluc reporter destabilization hit call,[8]; 2.5 µM,inactive: 0
same,number of time points,[9]; 2.5 µM,0
same,number of time points,[10]; 2.5 µM,1
CC1(C)C(=O)N([C@H]2CCc3c(O)cccc32)c2nc(Nc3cccc(CN4CCCC4)c3)ncc21,kinase-Nluc reporter destabilization hit call,[1]; 2.5 µM,inactive: 0
same,kinase-Nluc reporter destabilization hit call,[2]; 2.5 µM,inactive: 0
same,kinase-Nluc reporter destabilization hit call,[3]; 2.5 µM,inactive: 0
same,kinase-Nluc reporter destabilization hit call,[4]; 2.5 µM,inactive: 0
same,kinase-Nluc reporter destabilization hit call,[5]; 2.5 µM,inactive: 0
same,kinase-Nluc reporter destabilization hit call,[6]; 2.5 µM,inactive: 0
same,kinase-Nluc reporter destabilization hit call,[7]; 2.5 µM,inactive: 0
same,kinase-Nluc reporter destabilization hit call,[8]; 2.5 µM,inactive: 0
same,number of time points,[9]; 2.5 µM,0
same,number of time points,[10]; 2.5 µM,1
CCN(CC)CCNC(=O)c1c(C)[nH]c(/C=C2\C(=O)Nc3ccc(F)cc32)c1C [Sunitinib],kinase-Nluc reporter destabilization hit call,[1]; 2.5 µM,inactive: 0
same,kinase-Nluc reporter destabilization hit call,[3]; 2.5 µM,inactive: 0
same,kinase-Nluc reporter destabilization hit call,[4]; 2.5 µM,inactive: 0
same,kinase-Nluc reporter destabilization hit call,[5]; 2.5 µM,inactive: 0
same,kinase-Nluc reporter destabilization hit call,[6]; 2.5 µM,inactive: 0
same,kinase-Nluc reporter destabilization hit call,[8]; 2.5 µM,inactive: 0
same,number of time points,[9]; 2.5 µM,0
same,number of time points,[10]; 2.5 µM,0
O=C1NCCc2[nH]c(-c3ccncc3)cc21,kinase-Nluc reporter destabilization hit call,[1]; 2.5 µM,inactive: 0
same,kinase-Nluc reporter destabilization hit call,[3]; 2.5 µM,inactive: 0
same,kinase-Nluc reporter destabilization hit call,[4]; 2.5 µM,inactive: 0
same,kinase-Nluc reporter destabilization hit call,[5]; 2.5 µM,inactive: 0
same,kinase-Nluc reporter destabilization hit call,[6]; 2.5 µM,inactive: 0
same,kinase-Nluc reporter destabilization hit call,[7]; 2.5 µM,inactive: 0
same,kinase-Nluc reporter destabilization hit call,[8]; 2.5 µM,inactive: 0
same,number of time points,[9]; 2.5 µM,0
same,number of time points,[10]; 2.5 µM,0
C=CC(=O)N(C)CCOc1c(N)ncnc1-c1cc(F)cc(NC(=O)c2ccc(C3CC3)cc2F)c1C [Remibrutinib],kinase-Nluc reporter destabilization hit call,[1]; 10 µM,inactive: 0
same,kinase-Nluc reporter destabilization hit call,[2]; 10 µM,inactive: 0
same,kinase-Nluc reporter destabilization hit call,[3]; 10 µM,inactive: 0
same,kinase-Nluc reporter destabilization hit call,[4]; 10 µM,inactive: 0
same,kinase-Nluc reporter destabilization hit call,[5]; 10 µM,inactive: 0
same,kinase-Nluc reporter destabilization hit call,[6]; 10 µM,inactive: 0
same,kinase-Nluc reporter destabilization hit call,[7]; 10 µM,inactive: 0
same,kinase-Nluc reporter destabilization hit call,[8]; 10 µM,inactive: 0
same,number of time points,[9]; 10 µM,0
same,number of time points,[10]; 10 µM,0
C[C@@H]1O[C@@H](Oc2c(-c3ccc(O)c(O)c3)oc3cc(O)cc(O)c3c2=O)[C@H](O)[C@H](O)[C@H]1O [Quercitrin],kinase-Nluc reporter destabilization hit call,[1]; 10 µM,inactive: 0
same,kinase-Nluc reporter destabilization hit call,[2]; 10 µM,inactive: 0
same,kinase-Nluc reporter destabilization hit call,[3]; 10 µM,inactive: 0
same,kinase-Nluc reporter destabilization hit call,[4]; 10 µM,inactive: 0
same,kinase-Nluc reporter destabilization hit call,[5]; 10 µM,inactive: 0
same,kinase-Nluc reporter destabilization hit call,[6]; 10 µM,inactive: 0
same,kinase-Nluc reporter destabilization hit call,[7]; 10 µM,inactive: 0
same,kinase-Nluc reporter destabilization hit call,[8]; 10 µM,inactive: 0
same,number of time points,[9]; 10 µM,0
same,number of time points,[10]; 10 µM,0
COc1ccc(-c2cc3nccn3c(Nc3ncccc3C(N)=O)n2)cc1OC [BAY 61-3606 (dihydrochloride)],kinase-Nluc reporter destabilization hit call,[1]; 2.5 µM,inactive: 0
same,kinase-Nluc reporter destabilization hit call,[2]; 2.5 µM,inactive: 0
same,kinase-Nluc reporter destabilization hit call,[3]; 2.5 µM,inactive: 0
same,kinase-Nluc reporter destabilization hit call,[4]; 2.5 µM,inactive: 0
same,kinase-Nluc reporter destabilization hit call,[5]; 2.5 µM,inactive: 0
same,kinase-Nluc reporter destabilization hit call,[6]; 2.5 µM,inactive: 0
same,kinase-Nluc reporter destabilization hit call,[8]; 2.5 µM,inactive: 0
same,number of time points,[9]; 2.5 µM,0
same,number of time points,[10]; 2.5 µM,0
CC1(C)CNc2cc(NC(=O)c3cccnc3NCc3ccncc3)ccc21 [Motesanib (Diphosphate)],kinase-Nluc reporter destabilization hit call,[1]; 2.5 µM,inactive: 0
same,kinase-Nluc reporter destabilization hit call,[2]; 2.5 µM,inactive: 0
same,kinase-Nluc reporter destabilization hit call,[3]; 2.5 µM,inactive: 0
same,kinase-Nluc reporter destabilization hit call,[4]; 2.5 µM,inactive: 0
same,kinase-Nluc reporter destabilization hit call,[5]; 2.5 µM,inactive: 0
same,kinase-Nluc reporter destabilization hit call,[6]; 2.5 µM,inactive: 0
same,kinase-Nluc reporter destabilization hit call,[7]; 2.5 µM,inactive: 0
same,kinase-Nluc reporter destabilization hit call,[8]; 2.5 µM,inactive: 0
same,number of time points,[9]; 2.5 µM,0
same,number of time points,[10]; 2.5 µM,0
Fc1ccc(-c2nc(-c3ccc4ccccc4c3F)[nH]c2-c2ccncc2)cc1,kinase-Nluc reporter destabilization hit call,[1]; 10 µM,inactive: 0
same,kinase-Nluc reporter destabilization hit call,[2]; 10 µM,inactive: 0
same,kinase-Nluc reporter destabilization hit call,[3]; 10 µM,inactive: 0
same,kinase-Nluc reporter destabilization hit call,[4]; 10 µM,active: 1
same,kinase-Nluc reporter destabilization hit call,[5]; 10 µM,inactive: 0
same,kinase-Nluc reporter destabilization hit call,[6]; 10 µM,inactive: 0
same,kinase-Nluc reporter destabilization hit call,[7]; 10 µM,inactive: 0
same,kinase-Nluc reporter destabilization hit call,[8]; 10 µM,inactive: 0
same,number of time points,[9]; 10 µM,0
same,number of time points,[10]; 10 µM,0
CCCCCCCCCCCCc1ccc(S(=O)(=O)Nc2nncs2)cc1,kinase-Nluc reporter destabilization hit call,[1]; 10 µM,inactive: 0
same,kinase-Nluc reporter destabilization hit call,[2]; 10 µM,inactive: 0
same,kinase-Nluc reporter destabilization hit call,[3]; 10 µM,inactive: 0
same,kinase-Nluc reporter destabilization hit call,[4]; 10 µM,inactive: 0
same,kinase-Nluc reporter destabilization hit call,[5]; 10 µM,inactive: 0
same,kinase-Nluc reporter destabilization hit call,[6]; 10 µM,inactive: 0
same,kinase-Nluc reporter destabilization hit call,[7]; 10 µM,inactive: 0
same,kinase-Nluc reporter destabilization hit call,[8]; 10 µM,inactive: 0
same,number of time points,[9]; 10 µM,0
same,number of time points,[10]; 10 µM,0
C[C@@H]1CN(C(=O)Nc2ccc(-c3nc(N4CCOCC4)c4cnn(CCCCCCC(=O)NO)c4n3)cc2)CCO1 [HDACs/mTOR Inhibitor 1],kinase-Nluc reporter destabilization hit call,[1]; 10 µM,inactive: 0
same,kinase-Nluc reporter destabilization hit call,[2]; 10 µM,inactive: 0
same,kinase-Nluc reporter destabilization hit call,[3]; 10 µM,inactive: 0
same,kinase-Nluc reporter destabilization hit call,[4]; 10 µM,inactive: 0
same,kinase-Nluc reporter destabilization hit call,[5]; 10 µM,inactive: 0
same,kinase-Nluc reporter destabilization hit call,[6]; 10 µM,inactive: 0
same,kinase-Nluc reporter destabilization hit call,[7]; 10 µM,inactive: 0
same,kinase-Nluc reporter destabilization hit call,[8]; 10 µM,inactive: 0
same,number of time points,[9]; 10 µM,0
same,number of time points,[10]; 10 µM,0

# As a short view, part of the list above.
smiles,measurement,setting,value
CC(=O)c1c(C)c2cnc(Nc3ccc(N4CCN(C(=O)CCCCCC(=O)N[C@H](C(=O)N5C[C@H](O)C[C@H]5C(=O)NCc5ccc(-c6scnc6C)cc5)C(C)(C)C)CC4)cn3)nc2n(C2CCCC2)c1=O,kinase-Nluc reporter destabilization hit call,[5]; 2.5 µM,inactive: 0
same,kinase-Nluc reporter destabilization hit call,[6]; 2.5 µM,inactive: 0
same,kinase-Nluc reporter destabilization hit call,[7]; 2.5 µM,inactive: 0
same,kinase-Nluc reporter destabilization hit call,[8]; 2.5 µM,inactive: 0

# Two records drawn at random from those above:
smiles,measurement,setting,value
O=C1NCCc2[nH]c(-c3ccncc3)cc21,kinase-Nluc reporter destabilization hit call,[7]; 2.5 µM,inactive: 0
C=CC(=O)N(C)CCOc1c(N)ncnc1-c1cc(F)cc(NC(=O)c2ccc(C3CC3)cc2F)c1C [Remibrutinib],kinase-Nluc reporter destabilization hit call,[4]; 10 µM,inactive: 0

# Rewritten with tabs: entries from further up.
smiles	measurement	setting	value
CN1CCN(c2ccc3nc(-c4c(N)c5c(F)cccc5[nH]c4=O)[nH]c3c2)CC1 [Dovitinib]	kinase-Nluc reporter destabilization hit call	[7]; 2.5 µM	inactive: 0
C=CC(=O)N(C)CCOc1c(N)ncnc1-c1cc(F)cc(NC(=O)c2ccc(C3CC3)cc2F)c1C [Remibrutinib]	kinase-Nluc reporter destabilization hit call	[8]; 10 µM	inactive: 0
CCCCCCCCCCCCc1ccc(S(=O)(=O)Nc2nncs2)cc1	kinase-Nluc reporter destabilization hit call	[7]; 10 µM	inactive: 0
